Earlier results in US7427485B2, “Method for classification of anti-psychotic drugs” (The Rockefeller University, priority 2001, dated 2008).
At least one structure is not confirmed: it was looked up by name or label, or the drawing left a doubt.

How the values were obtained:
DARPP-32 = details: chronic administration in rats; cited from earlier work
DOI-induced behaviors = details: rats; 30 min pretreatment i.p.; fixed dose of DOI 3.0 mg/kg; cited from earlier work

Structure (SMILES)	frontal cortex levels of DARPP-32 immunoreactivity (DARPP-32)	effect on the three behavioral effects of DOI (head-and-body shakes, forepaw tapping, skin-jerks) (DOI-induced behaviors)
COC(=O)[C@H]1[C@@H](OC(=O)c2ccccc2)C[C@@H]2CC[C@H]1N2C [cocaine]	without effects	
Cc1cc2c(s1)Nc1ccccc1N=C2N1CCN(C)CC1 [olanzapine]		antagonize
